Source: PubChem BioAssay AID1347423 (Functional Genomics Laboratory (NCATS/FGL), 2020)
The whole screen tested about 52,000 sequences, of which about 210 (0.4%) were called active.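 Rule for the calls: active = gene whose silencing raises cell survival under the drug, median off-target-corrected z-score across its silencing RNAs 2 or more; inactive = the rest.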 The list shows a part of the results.

Experiment: Resistance to Poly (ADP-Ribose) Polymerase inhibitor: Gene Identification via Genome-wide siRNA Screen
Settings: mouse BRCA2 R2336H ES cells, olaparib, CellTiter-Glo viability; active compounds read high
In short: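 Mouse BRCA2 R2336H ES cells were reverse-transfected with siRNA (20 nM final), treated at 48 h with 500 nM olaparib, and read by CellTiter-Glo after 72 h. Scores: MAD-based z per siRNA, median per gene, seed off-target correction.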

Sequence | z-score
GGUGGACUCCAGAGUUUAUTT against Polr2h | inactive: -2.57
GGCUGUAAUGACGAAUACATT against C330023M02Rik | inactive: -1.02
GGGACAACGCACUCCAACATT against 1810024B03Rik | inactive: 1.17
GGCCUAAUUAGUUACUUCUTT against A630035I11Rik | inactive: 2.92
GGGUUUCCAGUACCUCAAUTT against Serpina6 | inactive: -0.847
GGAACCACAUCUCAGCAGGTT against Hsn2 | inactive: 0.189
CCGGCUAGAAACCGUGAAUTT against 9530051K01Rik | inactive: -0.591
GGAACAUUGUCUUAAGCAATT against Echdc3 | inactive: -0.41
GGCUGACUCUUAGAAAGGGTT against Siah1a | inactive: -0.961
CCAAAUAGCAGUAUCAGGATT against D430028G21Rik | inactive: -0.344
GGAAGUUAAUGGGUAAAGUTT against Olfr365 | inactive: -0.192
GGAAUAUCACUUCCAUACATT against Ntrk3 | inactive: 1.54
GGCAGAAUUCUUGAGAGAUTT against 1700024D23Rik | inactive: 1.36
GGCCAAACAAGACAUUCAGTT against Slmap | inactive: -0.476
CCAGAAAACCAAACAACAGTT against Olfr1357 | inactive: -0.522
GGGCUGAAAAAGGAACUGCTT against 0610037D15Rik | inactive: 0.309
GGAUAAAGGCCUGAGCGAUTT against D8Ertd594e | inactive: 0.581
CGAGCUUGCUAUCGGGAAGTT against Defb7 | inactive: -1.54
GGUCAGUGGAGCUCUCUAUTT against AI429612 | inactive: 1.61
GGCAAAGGCUAUCGCUCACTT against Smpd2 | inactive: 0.456
CGGCACCUACUUCAUCUAUTT against Eda | inactive: 0.81
CCUAAAUCCUCUAUUUUGGTT against Fmn2 | inactive: 0.0509
UCUUAUGCCUUGGUGCUCATT against Olfr746 | inactive: -0.337
CCUGCUCAUUGCAGUGACGTT against Olfr1243 | inactive: 0.695
GGACAAGCAACUGAAUGAGTT against D930010J01Rik | inactive: -0.286
GGUUUGAUUAUACCUAUCATT against Odz2 | inactive: -1.79

Looked up above:
z-score with GGCAGAAUUCUUGAGAGAUTT against 1700024D23Rik is entered as inactive: 1.36
z-score with GGAAGUUAAUGGGUAAAGUTT against Olfr365 is entered as inactive: -0.192

Further entries

Sequence | z-score
GGAUGGAACAUAUGAUUAGTT against V1rf1 | inactive: -0.109
GGUUCAGCUGGUCCUAUCUTT against Olfr1099 | inactive: 0.067
GCAUUUGUAGUUAUUUCACTT against C1d | inactive: 0.875
GGAAGAGUGUACCAGUGUUTT against 2610001E17Rik | inactive: 0.78
GGACUACAUAAGGAAGGUUTT against 4930527D15Rik | inactive: -0.0493
GGGAAAGAUAAUGGCCUGCTT against Tnfrsf23 | inactive: -0.849
CCAGCUAAACUCUGUAAAATT against Zfp639 | inactive: -1.21
ACCAGUAUGGCUUAAAGACTT against Bglap-rs1 | inactive: 0.974
GGUUCUGGGACUUAACAAATT against Rgs12 | inactive: -0.39
GGAGCUGGAAAGUUACCGATT against Dhrs6 | inactive: 1
GCUGGAUCACCGUUAUAAUTT against Wdr17 | inactive: 0.178
CGAUUCCAUUCUUAACAUATT against Crlf3 | inactive: 0.348
GGGUACCCUAGCUCUGUUATT against Timp2 | inactive: -0.165
GGGAUUGCAUGGUUAAACUTT against 4921501M20Rik | inactive: -0.607
CCCUAUAAAGAGAAAUUGGTT against Gm1008 | inactive: 1
GGAAAGAGUAAUAAUUGUCTT against Cyp1b1 | inactive: -0.222
GGAGAACAACAGUAAUUACTT against Reps2 | inactive: -2.31
GGACCUGCAUUCUAAAUCATT against Gm1960 | inactive: 1.28
GGCUAAAGUUGACAGCCAATT against Cd52 | inactive: -0.759
GGGACCAAUGUUCCAGGAATT against Ms4a4b | inactive: 0.375
GGCUAUGAGGACUAUCUGUTT against Dmbt1 | inactive: -0.181
GGAAUUCUAUGGUCUAACGTT against Usp46 | inactive: 2.95
GUCCCAGUACCUCUUUCUUTT against V1rc17 | inactive: -0.448
CGUUGCUUCUCCAUUGAGCTT against Cdh24 | inactive: 0.0418
GGUAUCAGUACUUUUUGCATT against Ptpn4 | inactive: -0.911
GGAAGUGGCCCUUAAAAGGTT against Osbpl3 | inactive: -0.324
